Experimental data reported in publication PMC3579733.
Results are given in words; binding and its absence hold for the method and conditions named. In cells and extracts the contact can be indirect. Here binding means that the protein was enriched with, or labelled near, the bait; the list need not be complete. A no says only that the protein was not detected with the bait.

Tests used:
Experiment in all cases: affinity purification with mass spectrometry; one-step and two-step bait fishing taken together (final data set; both methods applied to all baits); the place does not tell which of the two gave the result
[1] = biological target: T1, CheC1 (Halobacterium salinarum R1 (DSM 671)) (UniProt B0R4J8)
T1 sequence: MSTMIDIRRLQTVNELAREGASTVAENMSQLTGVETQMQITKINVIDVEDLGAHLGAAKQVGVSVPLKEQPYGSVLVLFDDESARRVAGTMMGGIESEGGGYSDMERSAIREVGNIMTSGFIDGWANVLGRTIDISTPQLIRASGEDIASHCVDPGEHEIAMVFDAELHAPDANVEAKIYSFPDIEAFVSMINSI

[2] = biological target: T2, CheC2 (Halobacterium salinarum R1 (DSM 671)) (UniProt Q9HPJ6)
T2 sequence: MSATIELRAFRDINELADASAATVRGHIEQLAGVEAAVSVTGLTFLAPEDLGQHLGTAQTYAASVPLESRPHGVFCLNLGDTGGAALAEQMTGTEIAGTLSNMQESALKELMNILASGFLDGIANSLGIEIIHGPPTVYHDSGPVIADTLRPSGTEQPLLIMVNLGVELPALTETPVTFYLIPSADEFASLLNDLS

[3] = biological target: T3, CheF1 (Halobacterium salinarum R1 (DSM 671)) (UniProt B0R4J3)
T3 sequence: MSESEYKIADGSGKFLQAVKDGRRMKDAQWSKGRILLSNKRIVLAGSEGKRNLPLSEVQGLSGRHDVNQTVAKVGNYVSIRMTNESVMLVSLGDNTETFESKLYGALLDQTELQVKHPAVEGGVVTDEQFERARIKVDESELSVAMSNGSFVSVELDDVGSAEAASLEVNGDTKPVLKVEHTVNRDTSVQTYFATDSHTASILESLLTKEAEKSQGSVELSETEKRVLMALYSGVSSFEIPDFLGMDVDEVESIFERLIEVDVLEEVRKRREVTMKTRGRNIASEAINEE

[4] = biological target: T4, CheY (Halobacterium salinarum R1 (DSM 671)) (UniProt B0R4K1)
T4 sequence: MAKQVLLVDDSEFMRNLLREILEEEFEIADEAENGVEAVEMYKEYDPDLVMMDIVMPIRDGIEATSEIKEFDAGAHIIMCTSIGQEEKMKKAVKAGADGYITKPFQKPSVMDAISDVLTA

[5] = biological target: T5, CheA (Halobacterium salinarum R1 (DSM 671)) (UniProt B0R4J9)
T5 sequence: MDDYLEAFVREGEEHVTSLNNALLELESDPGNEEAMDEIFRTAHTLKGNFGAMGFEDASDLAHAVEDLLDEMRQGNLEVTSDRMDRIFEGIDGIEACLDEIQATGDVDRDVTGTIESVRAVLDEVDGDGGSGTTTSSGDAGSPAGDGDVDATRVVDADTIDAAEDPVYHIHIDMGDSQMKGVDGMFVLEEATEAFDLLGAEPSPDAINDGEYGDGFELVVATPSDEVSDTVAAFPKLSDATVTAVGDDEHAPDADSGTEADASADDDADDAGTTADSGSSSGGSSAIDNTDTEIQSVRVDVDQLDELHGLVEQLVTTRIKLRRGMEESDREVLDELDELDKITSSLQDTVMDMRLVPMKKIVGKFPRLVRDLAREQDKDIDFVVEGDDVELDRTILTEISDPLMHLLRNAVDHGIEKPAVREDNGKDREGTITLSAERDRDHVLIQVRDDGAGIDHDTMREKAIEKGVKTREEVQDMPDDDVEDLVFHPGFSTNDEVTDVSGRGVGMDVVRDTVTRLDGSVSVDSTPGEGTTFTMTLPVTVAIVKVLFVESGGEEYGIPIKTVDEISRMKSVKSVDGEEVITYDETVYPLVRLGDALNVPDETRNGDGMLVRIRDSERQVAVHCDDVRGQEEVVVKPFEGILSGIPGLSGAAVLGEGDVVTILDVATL

[6] = biological target: T6, CheW1 (Halobacterium salinarum R1 (DSM 671)) (UniProt Q9HQW5)
T6 sequence: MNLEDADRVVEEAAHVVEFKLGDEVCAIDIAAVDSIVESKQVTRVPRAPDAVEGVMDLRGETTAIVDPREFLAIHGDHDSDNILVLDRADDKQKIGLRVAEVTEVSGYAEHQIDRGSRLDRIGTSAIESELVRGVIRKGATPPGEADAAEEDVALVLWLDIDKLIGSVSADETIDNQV

[7] = biological target: T7, CheF2 (Halobacterium salinarum R1 (DSM 671)) (UniProt B0R4J4)
T7 sequence: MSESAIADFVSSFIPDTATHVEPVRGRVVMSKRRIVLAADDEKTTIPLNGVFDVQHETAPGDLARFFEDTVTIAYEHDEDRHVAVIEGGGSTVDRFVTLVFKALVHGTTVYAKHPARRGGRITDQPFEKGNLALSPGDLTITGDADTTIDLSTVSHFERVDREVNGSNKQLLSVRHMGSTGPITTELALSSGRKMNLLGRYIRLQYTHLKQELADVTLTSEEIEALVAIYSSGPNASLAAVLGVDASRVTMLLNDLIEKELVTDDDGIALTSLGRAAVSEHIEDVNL

[8] = biological target: T8, CheR (Halobacterium salinarum R1 (DSM 671)) (UniProt B0R4J5)
T8 sequence: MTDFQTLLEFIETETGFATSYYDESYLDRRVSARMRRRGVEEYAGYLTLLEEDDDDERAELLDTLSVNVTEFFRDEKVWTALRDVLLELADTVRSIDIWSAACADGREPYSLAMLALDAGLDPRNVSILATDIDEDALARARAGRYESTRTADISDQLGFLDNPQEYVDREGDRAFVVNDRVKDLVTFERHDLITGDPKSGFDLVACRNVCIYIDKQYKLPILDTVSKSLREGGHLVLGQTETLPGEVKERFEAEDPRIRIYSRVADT

[9] = biological target: T9, CheB (Halobacterium salinarum R1 (DSM 671)) (UniProt B0R4K0)
T9 sequence: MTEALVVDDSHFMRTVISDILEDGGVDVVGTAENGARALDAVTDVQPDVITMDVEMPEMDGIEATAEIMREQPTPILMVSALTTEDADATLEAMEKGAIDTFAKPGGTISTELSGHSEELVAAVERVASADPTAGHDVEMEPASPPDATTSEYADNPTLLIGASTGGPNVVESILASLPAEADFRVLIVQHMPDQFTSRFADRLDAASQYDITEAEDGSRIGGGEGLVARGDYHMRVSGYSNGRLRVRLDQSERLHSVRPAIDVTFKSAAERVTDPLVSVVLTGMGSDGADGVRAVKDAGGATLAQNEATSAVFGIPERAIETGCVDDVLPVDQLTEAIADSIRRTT

[10] = biological target: T10, CheW2 (Halobacterium salinarum R1 (DSM 671)) (UniProt Q9HQY8)
T10 sequence: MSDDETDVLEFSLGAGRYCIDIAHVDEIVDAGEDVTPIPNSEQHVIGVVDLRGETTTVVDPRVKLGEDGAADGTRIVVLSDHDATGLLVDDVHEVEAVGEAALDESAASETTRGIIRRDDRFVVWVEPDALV

[11] = biological target: CheD (Halobacterium salinarum R1 (DSM 671))
[12] = biological target: OE4643R (Halobacterium salinarum R1 (DSM 671))
[13] = biological target: CheC3 (Halobacterium salinarum R1 (DSM 671))

Measured: binding

CheC3 (Halobacterium salinarum R1 (DSM 671))
no binding: [1] | [2]

HemAT (receptor)
no binding: [3] | [4] | [5] | [6] | [1] | [2] | [7] | [8] | [9] | [10]

Htr9 (receptor)
no binding: [3] | [4] | [5] | [6] | [1] | [2] | [7] | [8] | [9] | [10]

Htr12 (receptor)
no binding: [4] | [5] | [6] | [10]
binds: [8]

B1: Htr18 (receptor, UniProt B0R474 1-816)
chain: MALGTYVPTAIRTSLLRKAAVVIVTIMLVLVGVGVFTTQAVSTQVTEQRDTELLTSTEQEAEALEEWIGRQRSATQYLSQDNAIQSAPQADKSEVLSTRISGLTETAAALHYVNLSTDTIRASTDAAVEGDTYTSYSIPWRGEGLSFYGGGDVITSSVFNYRGTPVMAFASKQPGSDNAVFVFHSVETRGEAFSRNIDGSYTQVVDIEGTVQIAADESAISSAYGAGRDAPVIATGLTTNSGIETRDGLLVGHAKVEGTDWVLLKHAPTSNAYALEGDVQRNIVVLIVTAVAGLGALVLVIGRDALTALTDMSDRAEAIAAGDIDTAIEETTRIDEVGDLRRSFRDIQEYLQTVAGQADALAEQDFDADALDKSVPGRLGESLETMHWDLETAIADLEDAQETAEQSRKEAEQSREEAEALAAALESQAQDIRETVEHAADGDLTQRLETDTDHESMAAIATALNSLLEELEGTIHRIQRFSKDVAESSDHITTSAEEVKRASGQVSESVQEMSADARQQNGIVQDVSDEMTDLSATIEEIASSSDEVAAKSNDAVSVGQSGRARSQDAIEEMNAVDEQAKRTIAEMEALDDEMTEIGEIVTLIDDIAEQTSMLALNASIEAARAGEAGEGFAVVADEIKSLSKETTEATQEIESLIADVQDSTTDAVTDMQEMGDRLSEGKSTVTDTVETIDTIVERIEEANGGVQTINTATDEQATTTEEVVTMVDEVGSISDDTTARAEDAAAAAEEQTASLTEVTNRIQDLSDQSTDLYELLSDFTVREDHAVADGGAENTTGAFVRSASTDHSRDATHHDT
no binding: [6] | [11] | [12] | [10]
binds: [4]

B2: CheC1 (protein, UniProt B0R4J8 1-195)
chain: MSTMIDIRRLQTVNELAREGASTVAENMSQLTGVETQMQITKINVIDVEDLGAHLGAAKQVGVSVPLKEQPYGSVLVLFDDESARRVAGTMMGGIESEGGGYSDMERSAIREVGNIMTSGFIDGWANVLGRTIDISTPQLIRASGEDIASHCVDPGEHEIAMVFDAELHAPDANVEAKIYSFPDIEAFVSMINSI
no binding: [3] | [7] | [11]
binds: [2] | [9]

B3: CheC2 (protein, UniProt Q9HPJ6 1-196)
chain: MSATIELRAFRDINELADASAATVRGHIEQLAGVEAAVSVTGLTFLAPEDLGQHLGTAQTYAASVPLESRPHGVFCLNLGDTGGAALAEQMTGTEIAGTLSNMQESALKELMNILASGFLDGIANSLGIEIIHGPPTVYHDSGPVIADTLRPSGTEQPLLIMVNLGVELPALTETPVTFYLIPSADEFASLLNDLS
no binding: [9]
binds: [3] | [7] | [11]

B4: CheY (protein, UniProt B0R4K1 1-120)
chain: MAKQVLLVDDSEFMRNLLREILEEEFEIADEAENGVEAVEMYKEYDPDLVMMDIVMPIRDGIEATSEIKEFDAGAHIIMCTSIGQEEKMKKAVKAGADGYITKPFQKPSVMDAISDVLTA
no binding: [1] | [2] | [13]
